# Test results from US9926581B2, “Fagopyritol synthase genes and uses thereof” (Cornell Research Foundation, Inc., priority 2002, dated 2018).
# Experiments:
# immature soybean embryos = assay: Embryo feeding experiments: cyclitols fed to immature soybean embryos, precocious maturation by slow drying, soluble carbohydrates in axis and cotyledons; type: in vivo, Glycine max (L.) Merrill
# buckwheat explants = assay: Buckwheat explant feeding with 100 mM cyclitol in 1% sucrose for 5 days, soluble carbohydrates in embryos and leaf disks; type: in vivo, Fagopyrum esculentum; details: replicate values
# soybean explants = assay: Soybean explant feeding 3 days with 50 mM cyclitol in 1% sucrose, slow drying time course, soluble carbohydrates in axis, cotyledon, seed coat and leaf
# [1] = 3 days transport of sucrose (1%) and D-chiro-inositol (50 mM), after 2 days slow drying, Rep 1
# [2] = 3 days transport of sucrose (1%) and D-chiro-inositol (50 mM), after 2 days slow drying, Rep 2
# [3] = 3 days transport of sucrose (1%) and D-chiro-inositol (50 mM), after 4 days slow drying, Rep 1
# [4] = 3 days transport of sucrose (1%) and D-chiro-inositol (50 mM), after 4 days slow drying, Rep 2
# [5] = 3 days transport of sucrose (1%) and D-chiro-inositol (50 mM), after 14 days slow drying, Rep 1
# [6] = 3 days transport of sucrose (1%) and D-chiro-inositol (50 mM), after 14 days slow drying, Rep 2
# [7] = 3 days transport of sucrose (1%) and D-chiro-inositol (50 mM), before slow drying, Rep 1
# [8] = 3 days transport of sucrose (1%) and D-chiro-inositol (50 mM), before slow drying, Rep 2
# [9] = 3 days transport of sucrose (1%) and D-pinitol (50 mM), after 2 days slow drying, Rep 1
# [10] = 3 days transport of sucrose (1%) and D-pinitol (50 mM), after 2 days slow drying, Rep 2
# [11] = 3 days transport of sucrose (1%) and D-pinitol (50 mM), after 4 days slow drying, Rep 1
# [12] = 3 days transport of sucrose (1%) and D-pinitol (50 mM), after 4 days slow drying, Rep 2
# [13] = 3 days transport of sucrose (1%) and D-pinitol (50 mM), after 14 days slow drying, Rep 1
# [14] = 3 days transport of sucrose (1%) and D-pinitol (50 mM), after 14 days slow drying, Rep 2
# [15] = 3 days transport of sucrose (1%) and D-pinitol (50 mM), before slow drying, Rep 1
# [16] = 3 days transport of sucrose (1%) and D-pinitol (50 mM), before slow drying, Rep 2
# [17] = 3 days transport of sucrose (1%) and myo-inositol (50 mM), after 2 days slow drying, Rep 1
# [18] = 3 days transport of sucrose (1%) and myo-inositol (50 mM), after 2 days slow drying, Rep 2
# [19] = 3 days transport of sucrose (1%) and myo-inositol (50 mM), after 4 days slow drying, Rep 1
# [20] = 3 days transport of sucrose (1%) and myo-inositol (50 mM), after 4 days slow drying, Rep 2
# [21] = 3 days transport of sucrose (1%) and myo-inositol (50 mM), after 14 days slow drying, Rep 1
# [22] = 3 days transport of sucrose (1%) and myo-inositol (50 mM), after 14 days slow drying, Rep 2
# [23] = 3 days transport of sucrose (1%) and myo-inositol (50 mM), before slow drying, Rep 1
# [24] = 3 days transport of sucrose (1%) and myo-inositol (50 mM), before slow drying, Rep 2
# [25] = 3 days transport of sucrose (1%) without cyclitols, after 2 days slow drying, Rep 1
# [26] = 3 days transport of sucrose (1%) without cyclitols, after 2 days slow drying, Rep 2
# [27] = 3 days transport of sucrose (1%) without cyclitols, after 4 days slow drying, Rep 1
# [28] = 3 days transport of sucrose (1%) without cyclitols, after 4 days slow drying, Rep 2
# [29] = 3 days transport of sucrose (1%) without cyclitols, after 14 days slow drying, Rep 1
# [30] = 3 days transport of sucrose (1%) without cyclitols, after 14 days slow drying, Rep 2
# [31] = 3 days transport of sucrose (1%) without cyclitols, before slow drying, Rep 1
# [32] = 3 days transport of sucrose (1%) without cyclitols, before slow drying, Rep 2
compound,measurement,setting,value
"CO[C@H]1[C@H](O)[C@@H](O[C@H]2O[C@H](CO)[C@H](O)[C@H](O)[C@H]2O)[C@@H](O)[C@H](O)[C@@H]1O [Galactopinitol A, galactopinitol A]",change in concentration after feeding myo-inositol,"immature soybean embryos; axis and cotyledon tissues, myo-inositol up to 50 mM, after precocious maturation",little change
same,increase in concentration after feeding D-chiro-inositol,"immature soybean embryos; axis and cotyledons, concentration series, 14 days precocious maturation",did not increase
same,Soluble carbohydrates in embryos of seeds from buckwheat explants,"buckwheat explants; fed 100 mM D-chiro-inositol in 1% sucrose solution 5 days, 2 days slow drying",0 μg/embryo
same,Soluble carbohydrates in embryos of seeds from buckwheat explants,"buckwheat explants; fed 100 mM D-chiro-inositol in 1% sucrose solution 5 days, 4 days slow drying",0 μg/embryo
same,Soluble carbohydrates in embryos of seeds from buckwheat explants,"buckwheat explants; fed 100 mM D-chiro-inositol in 1% sucrose solution 5 days, 7 days slow drying",0 μg/embryo
same,Soluble carbohydrates in embryos of seeds from buckwheat explants,"buckwheat explants; fed 100 mM D-chiro-inositol in 1% sucrose solution, after 1 day feeding",0 μg/embryo
same,Soluble carbohydrates in embryos of seeds from buckwheat explants,"buckwheat explants; fed 100 mM D-chiro-inositol in 1% sucrose solution, after 5 days feeding",0 μg/embryo
same,Soluble carbohydrates in embryos of seeds from buckwheat explants,"buckwheat explants; fed 100 mM D-pinitol in 1% sucrose solution 5 days, 2 days slow drying",0 μg/embryo and 12.91 μg/embryo and 6.68 μg/embryo
same,Soluble carbohydrates in embryos of seeds from buckwheat explants,"buckwheat explants; fed 100 mM D-pinitol in 1% sucrose solution 5 days, 4 days slow drying",3.39 μg/embryo and 0 μg/embryo (2×)
same,Soluble carbohydrates in embryos of seeds from buckwheat explants,"buckwheat explants; fed 100 mM D-pinitol in 1% sucrose solution 5 days, 7 days slow drying",6.41 μg/embryo and 9.09 μg/embryo and 0 μg/embryo
same,Soluble carbohydrates in embryos of seeds from buckwheat explants,"buckwheat explants; fed 100 mM D-pinitol in 1% sucrose solution, after 1 day feeding",0 μg/embryo
same,Soluble carbohydrates in embryos of seeds from buckwheat explants,"buckwheat explants; fed 100 mM D-pinitol in 1% sucrose solution, after 5 days feeding",0 μg/embryo and 6.18 μg/embryo and 5.84 μg/embryo
same,Soluble carbohydrates in embryos of seeds from buckwheat explants,"buckwheat explants; fed 100 mM myo-inositol in 1% sucrose solution 5 days, 2 days slow drying",0 μg/embryo
same,Soluble carbohydrates in embryos of seeds from buckwheat explants,"buckwheat explants; fed 100 mM myo-inositol in 1% sucrose solution 5 days, 4 days slow drying",0 μg/embryo
same,Soluble carbohydrates in embryos of seeds from buckwheat explants,"buckwheat explants; fed 100 mM myo-inositol in 1% sucrose solution 5 days, 7 days slow drying",0 μg/embryo
same,Soluble carbohydrates in embryos of seeds from buckwheat explants,"buckwheat explants; fed 100 mM myo-inositol in 1% sucrose solution, after 1 day feeding",0 μg/embryo
same,Soluble carbohydrates in embryos of seeds from buckwheat explants,"buckwheat explants; fed 100 mM myo-inositol in 1% sucrose solution, after 5 days feeding",0 μg/embryo
same,Soluble carbohydrates in embryos of seeds from buckwheat explants,"buckwheat explants; fed 1% sucrose (without cyclitols) solution 5 days, 2 days slow drying",0 μg/embryo (2×) and tr
same,Soluble carbohydrates in embryos of seeds from buckwheat explants,"buckwheat explants; fed 1% sucrose (without cyclitols) solution 5 days, 4 days slow drying",0 μg/embryo
same,Soluble carbohydrates in embryos of seeds from buckwheat explants,"buckwheat explants; fed 1% sucrose (without cyclitols) solution 5 days, 7 days slow drying",0 μg/embryo
same,Soluble carbohydrates in embryos of seeds from buckwheat explants,"buckwheat explants; fed 1% sucrose (without cyclitols) solution, after 5 days feeding",0 μg/embryo and tr
same,Accumulation of soluble carbohydrates in soybean axis,soybean explants; [1],6.35 μg/axis
same,Accumulation of soluble carbohydrates in soybean cotyledon,soybean explants; [1],12.41 μg/cotyledon
same,Accumulation of soluble carbohydrates in soybean seed coat,soybean explants; [1],0 μg/seed coat
same,Accumulation of soluble carbohydrates in soybean axis,soybean explants; [2],6.24 μg/axis
same,Accumulation of soluble carbohydrates in soybean cotyledon,soybean explants; [2],16.08 μg/cotyledon
same,Accumulation of soluble carbohydrates in soybean seed coat,soybean explants; [2],4.13 μg/seed coat
same,Accumulation of soluble carbohydrates in soybean axis,soybean explants; [3],13.54 μg/axis
same,Accumulation of soluble carbohydrates in soybean cotyledon,soybean explants; [3],47.20 μg/cotyledon
same,Accumulation of soluble carbohydrates in soybean seed coat,soybean explants; [3],4.72 μg/seed coat
same,Accumulation of soluble carbohydrates in soybean axis,soybean explants; [4],12.18 μg/axis
same,Accumulation of soluble carbohydrates in soybean cotyledon,soybean explants; [4],42.69 μg/cotyledon
same,Accumulation of soluble carbohydrates in soybean seed coat,soybean explants; [4],4.29 μg/seed coat
same,Accumulation of soluble carbohydrates in soybean axis,soybean explants; [5],15.50 μg/axis
same,Accumulation of soluble carbohydrates in soybean cotyledon,soybean explants; [5],48.41 μg/cotyledon
same,Accumulation of soluble carbohydrates in soybean seed coat,soybean explants; [5],0 μg/seed coat
same,Accumulation of soluble carbohydrates in soybean axis,soybean explants; [6],10.18 μg/axis
same,Accumulation of soluble carbohydrates in soybean cotyledon,soybean explants; [6],47.44 μg/cotyledon
same,Accumulation of soluble carbohydrates in soybean seed coat,soybean explants; [6],7.33 μg/seed coat
same,Accumulation of soluble carbohydrates in soybean axis,soybean explants; [7],0 μg/axis
same,Accumulation of soluble carbohydrates in soybean cotyledon,soybean explants; [7],15.98 μg/cotyledon
same,Accumulation of soluble carbohydrates in soybean axis,soybean explants; [8],0 μg/axis
same,Accumulation of soluble carbohydrates in soybean cotyledon,soybean explants; [8],0 μg/cotyledon
same,Accumulation of soluble carbohydrates in soybean axis,soybean explants; [9],7.62 μg/axis
same,Accumulation of soluble carbohydrates in soybean cotyledon,soybean explants; [9],12.29 μg/cotyledon
same,Accumulation of soluble carbohydrates in soybean seed coat,soybean explants; [9],0 μg/seed coat
same,Accumulation of soluble carbohydrates in soybean axis,soybean explants; [10],9.41 μg/axis
same,Accumulation of soluble carbohydrates in soybean cotyledon,soybean explants; [10],8.49 μg/cotyledon
same,Accumulation of soluble carbohydrates in soybean seed coat,soybean explants; [10],5.55 μg/seed coat
same,Accumulation of soluble carbohydrates in soybean axis,soybean explants; [11],25.04 μg/axis
same,Accumulation of soluble carbohydrates in soybean cotyledon,soybean explants; [11],94.29 μg/cotyledon
same,Accumulation of soluble carbohydrates in soybean seed coat,soybean explants; [11],4.81 μg/seed coat
same,Accumulation of soluble carbohydrates in soybean axis,soybean explants; [12],19.32 μg/axis
same,Accumulation of soluble carbohydrates in soybean cotyledon,soybean explants; [12],117.43 μg/cotyledon
same,Accumulation of soluble carbohydrates in soybean seed coat,soybean explants; [12],5.72 μg/seed coat
same,Accumulation of soluble carbohydrates in soybean axis,soybean explants; [13],24.72 μg/axis
same,Accumulation of soluble carbohydrates in soybean cotyledon,soybean explants; [13],86.03 μg/cotyledon
same,Accumulation of soluble carbohydrates in soybean seed coat,soybean explants; [13],10.65 μg/seed coat
same,Accumulation of soluble carbohydrates in soybean axis,soybean explants; [14],32.49 μg/axis
same,Accumulation of soluble carbohydrates in soybean cotyledon,soybean explants; [14],104.22 μg/cotyledon
same,Accumulation of soluble carbohydrates in soybean seed coat,soybean explants; [14],19.70 μg/seed coat
same,Accumulation of soluble carbohydrates in soybean axis,soybean explants; [15],0 μg/axis
same,Accumulation of soluble carbohydrates in soybean cotyledon,soybean explants; [15],9.09 μg/cotyledon
same,Accumulation of soluble carbohydrates in soybean axis,soybean explants; [16],0 μg/axis
same,Accumulation of soluble carbohydrates in soybean cotyledon,soybean explants; [16],9.60 μg/cotyledon
same,Accumulation of soluble carbohydrates in soybean axis,soybean explants; [17],5.86 μg/axis
same,Accumulation of soluble carbohydrates in soybean cotyledons,soybean explants; [17],12.84 μg/cotyledon
same,Accumulation of soluble carbohydrates in soybean seed coats,soybean explants; [17],0 μg/seed coat
same,Accumulation of soluble carbohydrates in soybean axis,soybean explants; [18],8.20 μg/axis
same,Accumulation of soluble carbohydrates in soybean cotyledons,soybean explants; [18],10.98 μg/cotyledon
same,Accumulation of soluble carbohydrates in soybean seed coats,soybean explants; [18],0 μg/seed coat
same,Accumulation of soluble carbohydrates in soybean axis,soybean explants; [19],9.93 μg/axis
same,Accumulation of soluble carbohydrates in soybean cotyledons,soybean explants; [19],28.27 μg/cotyledon
same,Accumulation of soluble carbohydrates in soybean axis,soybean explants; [20],11.97 μg/axis
same,Accumulation of soluble carbohydrates in soybean cotyledons,soybean explants; [20],54.91 μg/cotyledon
same,Accumulation of soluble carbohydrates in soybean seed coats,soybean explants; [20],4.87 μg/seed coat
same,Accumulation of soluble carbohydrates in soybean axis,soybean explants; [21],13.99 μg/axis
same,Accumulation of soluble carbohydrates in soybean cotyledons,soybean explants; [21],34.57 μg/cotyledon
same,Accumulation of soluble carbohydrates in soybean seed coats,soybean explants; [21],6.98 μg/seed coat
same,Accumulation of soluble carbohydrates in soybean axis,soybean explants; [22],10.23 μg/axis
same,Accumulation of soluble carbohydrates in soybean cotyledons,soybean explants; [22],28.69 μg/cotyledon
same,Accumulation of soluble carbohydrates in soybean seed coats,soybean explants; [22],7.08 μg/seed coat
same,Accumulation of soluble carbohydrates in soybean axis,soybean explants; [23],4.31 μg/axis
same,Accumulation of soluble carbohydrates in soybean cotyledons,soybean explants; [23],9.46 μg/cotyledon
same,Accumulation of soluble carbohydrates in soybean axis,soybean explants; [24],0 μg/axis
same,Accumulation of soluble carbohydrates in soybean cotyledons,soybean explants; [24],10.00 μg/cotyledon
same,Accumulation of soluble carbohydrates in soybean axis,soybean explants; [25],7.55 μg/axis
same,Accumulation of soluble carbohydrates in soybean cotyledon,soybean explants; [25],9.17 μg/cotyledon
same,Accumulation of soluble carbohydrates in soybean seed coats,soybean explants; [25],0 μg/seed coat
same,Accumulation of soluble carbohydrates in soybean axis,soybean explants; [26],9.97 μg/axis
same,Accumulation of soluble carbohydrates in soybean cotyledon,soybean explants; [26],9.30 μg/cotyledon
same,Accumulation of soluble carbohydrates in soybean seed coats,soybean explants; [26],4.95 μg/seed coat
same,Accumulation of soluble carbohydrates in soybean axis,soybean explants; [27],17.42 μg/axis
same,Accumulation of soluble carbohydrates in soybean cotyledon,soybean explants; [27],114.04 μg/cotyledon
same,Accumulation of soluble carbohydrates in soybean seed coats,soybean explants; [27],5.54 μg/seed coat
same,Accumulation of soluble carbohydrates in soybean axis,soybean explants; [28],16.07 μg/axis
same,Accumulation of soluble carbohydrates in soybean cotyledon,soybean explants; [28],84.24 μg/cotyledon
same,Accumulation of soluble carbohydrates in soybean seed coats,soybean explants; [28],8.05 μg/seed coat
same,Accumulation of soluble carbohydrates in soybean axis,soybean explants; [29],16.14 μg/axis
same,Accumulation of soluble carbohydrates in soybean cotyledon,soybean explants; [29],102.80 μg/cotyledon
same,Accumulation of soluble carbohydrates in soybean seed coats,soybean explants; [29],5.79 μg/seed coat
same,Accumulation of soluble carbohydrates in soybean axis,soybean explants; [30],12.28 μg/axis
same,Accumulation of soluble carbohydrates in soybean cotyledon,soybean explants; [30],68.60 μg/cotyledon
same,Accumulation of soluble carbohydrates in soybean seed coats,soybean explants; [30],6.14 μg/seed coat
same,Accumulation of soluble carbohydrates in soybean axis,soybean explants; [31],0 μg/axis
same,Accumulation of soluble carbohydrates in soybean cotyledon,soybean explants; [31],9.90 μg/cotyledon
same,Accumulation of soluble carbohydrates in soybean axis,soybean explants; [32],0 μg/axis
same,Accumulation of soluble carbohydrates in soybean cotyledon,soybean explants; [32],9.21 μg/cotyledon

# Where “and” joins values, the source holds several entries; their conditions need not be identical. Identical values can stand only once.
